Results from paper PMC8394137.
Results are given in words; binding and its absence hold for the method and conditions named. Binding seen in cells or lysates may run through a third protein. Here binding means that the protein was enriched with, or labelled near, the bait; the list need not be complete.

Sequences of proteins named here, by UniProt entry; tags and fusion partners are left off.
UniProt O43736: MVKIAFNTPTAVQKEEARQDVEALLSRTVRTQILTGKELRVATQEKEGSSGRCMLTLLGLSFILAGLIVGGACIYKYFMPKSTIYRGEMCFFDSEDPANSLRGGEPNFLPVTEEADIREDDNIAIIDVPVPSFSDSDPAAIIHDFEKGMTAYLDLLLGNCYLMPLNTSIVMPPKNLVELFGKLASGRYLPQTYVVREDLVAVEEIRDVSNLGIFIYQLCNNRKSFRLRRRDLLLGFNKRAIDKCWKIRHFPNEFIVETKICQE

B1: NUP93 (protein, UniProt Q8N1F7 1-819)
chain: MDTEGFGELLQQAEQLAAETEGISELPHVERNLQEIQQAGERLRSRTLTRTSQETADVKASVLLGSRGLDISHISQRLESLSAATTFEPLEPVKDTDIQGFLKNEKDNALLSAIEESRKRTFGMAEEYHRESMLVEWEQVKQRILHTLLASGEDALDFTQESEPSYISDVGPPGRSSLDNIEMAYARQIYIYNEKIVNGHLQPNLVDLCASVAELDDKSISDMWTMVKQMTDVLLTPATDALKNRSSVEVRMEFVRQALAYLEQSYKNYTLVTVFGNLHQAQLGGVPGTYQLVRSFLNIKLPAPLPGLQDGEVEGHPVWALIYYCMRCGDLLAASQVVNRAQHQLGEFKTWFQEYMNSKDRRLSPATENKLRLHYRRALRNNTDPYKRAVYCIIGRCDVTDNQSEVADKTEDYLWLKLNQVCFDDDGTSSPQDRLTLSQFQKQLLEDYGESHFTVNQQPFLYFQVLFLTAQFEAAVAFLFRMERLRCHAVHVALVLFELKLLLKSSGQSAQLLSHEPGDPPCLRRLNFVRLLMLYTRKFESTDPREALQYFYFLRDEKDSQGENMFLRCVSELVIESREFDMILGKLENDGSRKPGVIDKFTSDTKPIINKVASVAENKGLFEEAAKLYDLAKNADKVLELMNKLLSPVVPQISAPQSNKERLKNMALSIAERYRAQGISANKFVDSTFYLLLDLITFFDEYHSGHIDRAFDIIERLKLVPLNQESVEERVAAFRNFSDEIRHNLSEVLLATMNILFTQFKRLKGTSPSSSSRPQRVIEDRDSQLRSQARTLITFAGMIPYRTSGDTNARLVQMEVLMN
B2: SLC25A3 (protein, UniProt Q00325 50-362)
chain: AVEEQYSCDYGSGRFFILCGLGGIISCGTTHTALVPLDLVKCRMQVDPQKYKGIFNGFSVTLKEDGVRGLAKGWAPTFLGYSMQGLCKFGFYEVFKVLYSNMLGEENTYLWRTSLYLAASASAEFFADIALAPMEAAKVRIQTQPGYANTLRDAAPKMYKEEGLKAFYKGVAPLWMRQIPYTMMKFACFERTVEALYKFVVPKPRSECSKPEQLVVTFVAGYIAGVFCAIVSHPADSVVSVLNKEKGSSASLVLKRLGFKGVWKGLFARIIMIGTLTALQWFIYDSVKVYFRLPRPPPPEMPESLKKKLGLTQ
B3: STT3B (protein, UniProt Q8TCJ2 1-826)
chain: MAEPSAPESKHKSSLNSSPWSGLMALGNSRHGHHGPGAQCAHKAAGGAAPPKPAPAGLSGGLSQPAGWQSLLSFTILFLAWLAGFSSRLFAVIRFESIIHEFDPWFNYRSTHHLASHGFYEFLNWFDERAWYPLGRIVGGTVYPGLMITAGLIHWILNTLNITVHIRDVCVFLAPTFSGLTSISTFLLTRELWNQGAGLLAACFIAIVPGYISRSVAGSFDNEGIAIFALQFTYYLWVKSVKTGSVFWTMCCCLSYFYMVSAWGGYVFIINLIPLHVFVLLLMQRYSKRVYIAYSTFYIVGLILSMQIPFVGFQPIRTSEHMAAAGVFALLQAYAFLQYLRDRLTKQEFQTLFFLGVSLAAGAVFLSVIYLTYTGYIAPWSGRFYSLWDTGYAKIHIPIIASVSEHQPTTWVSFFFDLHILVCTFPAGLWFCIKNINDERVFVALYAISAVYFAGVMVRLMLTLTPVVCMLSAIAFSNVFEHYLGDDMKRENPPVEDSSDEDDKRNQGNLYDKAGKVRKHATEQEKTEEGLGPNIKSIVTMLMLMLLMMFAVHCTWVTSNAYSSPSVVLASYNHDGTRNILDDFREAYFWLRQNTDEHARVMSWWDYGYQIAGMANRTTLVDNNTWNNSHIALVGKAMSSNETAAYKIMRTLDVDYVLVIFGGVIGYSGDDINKFLWMVRIAEGEHPKDIRESDYFTPQGEFRVDKAGSPTLLNCLMYKMSYYRFGEMQLDFRTPPGFDRTRNAEIGNKDIKFKHLEEAFTSEHWLVRIYKVKAPDNRETLDHKPRVTNIFPKQKYLSKKTTKRKRGYIKNKLVFKKGKKISKKTV
B4: TRIP13 (protein, UniProt Q15645 1-432)
chain: MDEAVGDLKQALPCVAESPTVHVEVHQRGSSTAKKEDINLSVRKLLNRHNIVFGDYTWTEFDEPFLTRNVQSVSIIDTELKVKDSQPIDLSACTVALHIFQLNEDGPSSENLEEETENIIAANHWVLPAAEFHGLWDSLVYDVEVKSHLLDYVMTTLLFSDKNVNSNLITWNRVVLLHGPPGTGKTSLCKALAQKLTIRLSSRYRYGQLIEINSHSLFSKWFSESGKLVTKMFQKIQDLIDDKDALVFVLIDEVESLTAARNACRAGTEPSDAIRVVNAVLTQIDQIKRHSNVVILTTSNITEKIDVAFVDRADIKQYIGPPSAAAIFKIYLSCLEELMKCQIIYPRQQLLTLRELEMIGFIENNVSKLSLLLNDISRKSEGLSGRVLRKLPFLAHALYVQAPTVTIEGFLQALSLAVDKQFEERKKLAAYI

Target: HA-ITM2A (UniProt O43736)
Assay: affinity purification with mass spectrometry; HEK293 transfected with HA-ITM2A or empty pcDNA3.1, immunoprecipitated as for co-IP, trypsin digestion, mass spectrometry; proteins of the empty-vector control subtracted

binding, binds:
B1
B2
B3
B4
